# Measurements reported in the supplement of paper PMC6411743.
# ± gives the standard deviation of the averaged measurements. The entries are a selection whose mix differs from that of the whole data set.
# What was measured:
# Assay in all cases: NP40-soluble protein abundance relative to vehicle (solubility fold change) (ratio); higher = more soluble protein in presence of AMP-PNP
# [1] = target: T1, UniProt P52594 and related entries
# T1 sequence (whole entry): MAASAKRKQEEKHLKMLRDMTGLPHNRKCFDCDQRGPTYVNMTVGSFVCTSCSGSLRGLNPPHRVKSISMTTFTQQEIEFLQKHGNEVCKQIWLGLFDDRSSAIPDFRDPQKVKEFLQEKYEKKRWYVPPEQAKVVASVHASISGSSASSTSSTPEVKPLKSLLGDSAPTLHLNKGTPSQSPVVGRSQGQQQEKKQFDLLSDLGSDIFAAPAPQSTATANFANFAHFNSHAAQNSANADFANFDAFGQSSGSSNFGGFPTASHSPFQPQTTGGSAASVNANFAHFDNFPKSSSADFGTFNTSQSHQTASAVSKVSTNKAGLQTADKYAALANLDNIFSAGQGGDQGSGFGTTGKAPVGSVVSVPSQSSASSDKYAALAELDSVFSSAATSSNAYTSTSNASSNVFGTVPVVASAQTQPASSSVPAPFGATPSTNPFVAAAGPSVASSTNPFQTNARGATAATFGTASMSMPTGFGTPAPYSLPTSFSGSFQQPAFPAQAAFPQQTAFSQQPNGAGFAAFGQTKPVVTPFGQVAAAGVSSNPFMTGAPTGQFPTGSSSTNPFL
# Procedure, shortened: (§1)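 Jurkat crude lysate (Dounce-homogenised) was treated with eight concentrations from 0.1 to 10 mM for 10 min at room temperature, then 3 min at 37 °C. It was solubilised with 0.8% NP40 and benzonase (60 min, 4 °C) and ultracentrifuged, and the supernatant was TMT-labelled for LC-MS/MS. Intensities were vsn-normalised, and the value is the fold change against the NP40-processed vehicle per replicate, from three independent experiments.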
# [2] = target: T2, UniProt P52757 and related entries
# T2 sequence (whole entry): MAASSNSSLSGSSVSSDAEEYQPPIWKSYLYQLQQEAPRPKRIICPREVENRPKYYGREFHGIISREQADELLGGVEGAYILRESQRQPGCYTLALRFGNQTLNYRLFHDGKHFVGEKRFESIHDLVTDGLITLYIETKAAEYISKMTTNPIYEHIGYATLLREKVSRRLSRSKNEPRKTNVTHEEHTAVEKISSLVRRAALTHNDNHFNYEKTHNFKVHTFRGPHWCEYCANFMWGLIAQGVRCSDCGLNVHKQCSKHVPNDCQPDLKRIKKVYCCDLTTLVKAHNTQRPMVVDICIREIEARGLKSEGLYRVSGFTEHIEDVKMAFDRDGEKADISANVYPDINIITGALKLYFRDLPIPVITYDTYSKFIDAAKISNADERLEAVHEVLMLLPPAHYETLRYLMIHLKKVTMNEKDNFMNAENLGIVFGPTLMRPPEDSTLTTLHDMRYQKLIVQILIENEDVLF
# Procedure, shortened: as §1
# [3] = target: T3, UniProt P54725 and related entries
# T3 sequence (whole entry): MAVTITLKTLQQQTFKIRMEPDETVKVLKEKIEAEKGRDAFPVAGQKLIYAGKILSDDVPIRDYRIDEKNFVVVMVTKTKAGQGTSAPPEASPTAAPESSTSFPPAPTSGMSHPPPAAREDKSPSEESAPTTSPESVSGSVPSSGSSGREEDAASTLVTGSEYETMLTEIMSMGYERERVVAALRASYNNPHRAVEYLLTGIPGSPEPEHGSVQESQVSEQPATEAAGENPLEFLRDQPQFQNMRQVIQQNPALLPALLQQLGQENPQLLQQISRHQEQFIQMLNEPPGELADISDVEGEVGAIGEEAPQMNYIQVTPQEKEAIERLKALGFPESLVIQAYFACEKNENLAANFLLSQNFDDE
# Procedure, shortened: as §1
# [4] = target: T4, UniProt P55036 and related entries
# T4 sequence (whole entry): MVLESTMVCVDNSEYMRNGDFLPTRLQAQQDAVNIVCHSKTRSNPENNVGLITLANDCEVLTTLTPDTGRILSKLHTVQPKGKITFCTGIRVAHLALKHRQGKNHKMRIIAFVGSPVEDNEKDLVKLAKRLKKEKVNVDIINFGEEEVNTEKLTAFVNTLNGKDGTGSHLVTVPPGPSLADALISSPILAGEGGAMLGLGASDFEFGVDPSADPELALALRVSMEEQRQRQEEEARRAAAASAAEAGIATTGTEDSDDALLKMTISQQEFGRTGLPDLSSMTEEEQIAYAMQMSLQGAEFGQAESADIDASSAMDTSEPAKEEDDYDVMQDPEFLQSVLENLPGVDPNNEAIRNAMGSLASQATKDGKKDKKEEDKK
# Procedure, shortened: as §1
# [5] = target: T5, UniProt P55210 and related entries
# T5 sequence (whole entry): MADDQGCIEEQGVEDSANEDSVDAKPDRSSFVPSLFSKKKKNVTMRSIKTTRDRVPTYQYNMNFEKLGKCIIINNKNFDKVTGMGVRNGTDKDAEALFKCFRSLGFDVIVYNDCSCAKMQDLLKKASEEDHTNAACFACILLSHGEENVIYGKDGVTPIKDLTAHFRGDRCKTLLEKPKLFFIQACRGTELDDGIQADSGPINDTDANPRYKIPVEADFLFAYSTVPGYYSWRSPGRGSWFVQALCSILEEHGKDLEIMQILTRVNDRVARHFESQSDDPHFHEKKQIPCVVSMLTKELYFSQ
# Procedure, shortened: as §1
# WAS = target: T6, WAS (UniProt P42768)
# T6 sequence (whole entry): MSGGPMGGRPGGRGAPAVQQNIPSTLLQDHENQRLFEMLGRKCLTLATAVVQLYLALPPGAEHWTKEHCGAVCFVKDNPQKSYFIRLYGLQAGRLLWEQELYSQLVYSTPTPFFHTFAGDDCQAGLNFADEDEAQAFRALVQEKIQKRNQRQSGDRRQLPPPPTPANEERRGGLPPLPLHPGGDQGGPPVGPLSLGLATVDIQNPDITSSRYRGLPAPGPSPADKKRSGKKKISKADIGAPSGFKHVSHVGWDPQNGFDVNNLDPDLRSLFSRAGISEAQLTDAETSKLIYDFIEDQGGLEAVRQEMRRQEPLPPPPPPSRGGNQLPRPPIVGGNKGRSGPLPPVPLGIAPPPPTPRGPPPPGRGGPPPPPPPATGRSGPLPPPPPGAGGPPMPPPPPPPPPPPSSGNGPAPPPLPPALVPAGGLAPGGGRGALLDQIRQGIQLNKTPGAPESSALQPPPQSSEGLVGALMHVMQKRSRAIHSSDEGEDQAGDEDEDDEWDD
# Procedure, shortened: as §1
compound,measurement,setting,value
Nc1ncnc2c1ncn2[C@@H]1O[C@H](COP(=O)(O)OP(=O)(O)NP(=O)(O)O)[C@@H](O)[C@H]1O [adenylyl imidodiphosphate],NP40-soluble protein abundance,[1]; concentration: 8mM,1.03 ± 0.062
same,NP40-soluble protein abundance,[1]; concentration: 10mM,1.03 ± 0.068
same,NP40-soluble protein abundance,[2]; concentration: 1mM,1.02 ± 0.023
same,NP40-soluble protein abundance,[2]; concentration: 2mM,0.988 ± 0.048
same,NP40-soluble protein abundance,[2]; concentration: 4mM,0.99 ± 0.056
same,NP40-soluble protein abundance,[2]; concentration: 6mM,1.001 ± 0.0063
same,NP40-soluble protein abundance,[2]; concentration: 8mM,1.01 ± 0.025
same,NP40-soluble protein abundance,[2]; concentration: 10mM,0.992 ± 0.037
same,NP40-soluble protein abundance,[3]; concentration: 1mM,1.03 ± 0.016
same,NP40-soluble protein abundance,[3]; concentration: 2mM,1.09 ± 0.072
same,NP40-soluble protein abundance,[3]; concentration: 4mM,0.975 ± 0.034
same,NP40-soluble protein abundance,[3]; concentration: 6mM,0.988 ± 0.025
same,NP40-soluble protein abundance,[3]; concentration: 8mM,0.974 ± 0.017
same,NP40-soluble protein abundance,[3]; concentration: 10mM,0.957 ± 0.058
same,NP40-soluble protein abundance,[4]; concentration: 1mM,0.981 ± 0.032
same,NP40-soluble protein abundance,[4]; concentration: 2mM,0.989 ± 0.043
same,NP40-soluble protein abundance,[4]; concentration: 4mM,0.968 ± 0.046
same,NP40-soluble protein abundance,[4]; concentration: 6mM,0.963 ± 0.08
same,NP40-soluble protein abundance,[4]; concentration: 8mM,0.938 ± 0.05
same,NP40-soluble protein abundance,[4]; concentration: 10mM,0.97 ± 0.064
same,NP40-soluble protein abundance,[5]; concentration: 1mM,0.991 ± 0.026
same,NP40-soluble protein abundance,[5]; concentration: 2mM,0.989 ± 0.022
same,NP40-soluble protein abundance,[5]; concentration: 4mM,0.96 ± 0.02
same,NP40-soluble protein abundance,[5]; concentration: 6mM,0.987 ± 0.051
same,NP40-soluble protein abundance,[5]; concentration: 8mM,0.982 ± 0.057
same,NP40-soluble protein abundance,[5]; concentration: 10mM,0.984 ± 0.054
same,NP40-soluble protein abundance,WAS; concentration: 1mM,0.971 ± 0.04
same,NP40-soluble protein abundance,WAS; concentration: 2mM,1.03 ± 0.049
same,NP40-soluble protein abundance,WAS; concentration: 4mM,0.957 ± 0.065
same,NP40-soluble protein abundance,WAS; concentration: 6mM,0.932 ± 0.036
same,NP40-soluble protein abundance,WAS; concentration: 8mM,0.907 ± 0.022
same,NP40-soluble protein abundance,WAS; concentration: 10mM,0.924 ± 0.049

# Looked up one by one from the list above, 3 records:
compound,measurement,setting,value
Nc1ncnc2c1ncn2[C@@H]1O[C@H](COP(=O)(O)OP(=O)(O)NP(=O)(O)O)[C@@H](O)[C@H]1O [adenylyl imidodiphosphate],NP40-soluble protein abundance,WAS; concentration: 10mM,0.924 ± 0.049
same,NP40-soluble protein abundance,[3]; concentration: 4mM,0.975 ± 0.034
same,NP40-soluble protein abundance,[3]; concentration: 1mM,1.03 ± 0.016
